# From the supplement of paper PMC3334620
# Whole data set: some 33,000 sequences, median “E-score (-0.5 to 0.5)” near -0.015, cut for the highest 2% near 0.3. The list shows a part of the results.
# Target: T1, Abf1 (UniProt P14164)
# T1 sequence: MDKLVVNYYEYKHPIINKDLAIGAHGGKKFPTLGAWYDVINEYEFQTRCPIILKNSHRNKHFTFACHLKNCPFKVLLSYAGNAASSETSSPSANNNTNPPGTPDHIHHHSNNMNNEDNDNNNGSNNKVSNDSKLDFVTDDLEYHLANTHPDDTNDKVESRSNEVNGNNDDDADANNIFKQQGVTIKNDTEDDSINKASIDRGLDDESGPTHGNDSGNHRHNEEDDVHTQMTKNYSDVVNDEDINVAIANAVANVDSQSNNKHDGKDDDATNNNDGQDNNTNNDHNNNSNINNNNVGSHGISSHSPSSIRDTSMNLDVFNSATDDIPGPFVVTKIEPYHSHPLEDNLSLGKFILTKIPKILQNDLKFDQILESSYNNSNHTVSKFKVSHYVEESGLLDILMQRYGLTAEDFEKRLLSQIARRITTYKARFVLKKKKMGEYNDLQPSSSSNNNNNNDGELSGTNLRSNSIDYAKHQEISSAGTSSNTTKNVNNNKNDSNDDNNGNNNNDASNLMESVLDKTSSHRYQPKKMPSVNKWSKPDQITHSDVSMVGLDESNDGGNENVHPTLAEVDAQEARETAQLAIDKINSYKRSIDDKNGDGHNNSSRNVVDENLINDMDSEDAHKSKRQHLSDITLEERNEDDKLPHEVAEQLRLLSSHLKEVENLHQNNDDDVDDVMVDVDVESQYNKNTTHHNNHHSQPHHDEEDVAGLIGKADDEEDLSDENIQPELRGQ
# Assay: PBM E-score (8-mer binding enrichment) (E-score (-0.5 to 0.5)); higher = stronger / more preferred TF binding
# Conditions: protein concentration: 200 nM; construct: GST-full length
# Description: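 Universal 'all 10-mer' protein binding microarrays (Agilent AMADID 015681) probed with GST-tagged S. cerevisiae TFs (full-length or DBD) made by in vitro transcription/translation (PURExpress), about 100-200 nM. Bound TF was detected with fluorescent anti-GST. Each ungapped 8-mer (which stands for itself and its reverse complement) is scored by the PBM enrichment score (E-score), a modified Wilcoxon-Mann-Whitney statistic from -0.5 to +0.5, computed with the Universal PBM Analysis Suite. Scale: above 0.35 generally sequence-specific binding.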
row,Sequence,PBM E-score
1,GACTGACA,0.105
2,TTCCGGAA,-0.106
3,CAAAGAAA,0.11
4,ACCTTGCG,-0.0227
5,CTACCGGC,-0.224
6,AGAGTCCA,-0.101
7,ATTCGGTG,-0.0175
8,AAGCTACT,0.0421
9,ACCTACCG,-0.126
10,CGCTGAAG,-0.0468
11,ACGTGCAG,0.0588
12,GTTATGAA,0.0974
13,CAATTGAA,0.0172
14,CCGTTGCA,0.021
15,CTGGATGC,-0.0926
16,GAGTCATC,0.18
17,AACTCCTT,0.0135
18,ATGAAGGA,0.111
19,ATCAATTG,0.0641
20,GCCACCCA,-0.336
21,ACCTCGCG,0.0902
22,CTCTTTGA,-0.148
23,AGCGTCAG,-0.0296
24,ACTTCGTA,0.297
25,CCTGATGA,0.139

# Quoted at random: 6 entries already listed, in no set order.
row,Sequence,PBM E-score
10,CGCTGAAG,-0.0468
16,GAGTCATC,0.18
19,ATCAATTG,0.0641
18,ATGAAGGA,0.111
22,CTCTTTGA,-0.148
17,AACTCCTT,0.0135

# Further results follow:

row,Sequence,PBM E-score
1,AAGAATCG,0.189
2,GACAACGC,0.0391
3,ACTTACCC,0.0246
4,GGGGATGA,0.114
5,AAGTGAGC,0.0982
6,TAAGCCGA,0.0917
7,CCCACACA,-0.113
8,ACGACCTG,0.0542
9,ACTACCTC,-0.117
10,GTAAGCTA,0.146
11,ATAAACCC,0.079
12,CAAACAAC,0.0993
13,ACTTCTGA,-0.0108
14,AAATTGTA,0.184
15,TAGTAACA,0.233
16,CAGCCGTC,0.0544
17,AATGCCTC,-0.0892
18,ATTGTATG,0.109
19,CGCTATTC,-0.00249
20,GCAGCTTA,-0.195
21,ACGAGTTA,0.157
22,CCCCAAGA,-0.0818
23,GTCTAGAC,0.00361
24,ATACCGCC,-0.12
25,GTCTTGTA,-0.191

# In another format: entries from further up.
row | Sequence | PBM E-score
7 | CCCACACA | -0.113
8 | ACGACCTG | 0.0542

# The list goes on.

row,Sequence,PBM E-score
1,ATCTGGCC,-0.183
2,TAATTGCA,0.0292
3,TAATGGTA,0.0646
4,CCTCCCAC,-0.188
5,ACCAAATC,-0.0649
6,AGATTACC,-0.0321
7,CTTCGGCA,-0.0117
8,AGGTTCTC,-0.152
9,GTAAGTAC,0.116
10,CTTATGCA,0.142
11,AGCACGAA,0.217
12,GCCTGCTA,-0.1
13,AGTGAGGC,-0.0618
14,CCACCCAC,-0.0376
15,TACTGCGA,-0.0871
16,CACGGACA,0.162
17,ATTCATTC,0.125
18,CATTTTAC,0.154
19,AGGCCCCT,-0.24
20,TCAAACGA,0.27
21,GACATATA,0.185
22,CTCCATGA,-0.00266
23,AAGCGTAA,-0.149
24,AGCCATAA,0.0101
25,AGACATCC,0.0489

row,Sequence,PBM E-score
1,GAGACTTA,-0.00783
2,CCGGAGGC,-0.269
3,CTCTCACA,-0.0457
4,CGTTACTA,0.132
5,AGTCACGA,0.29
6,AAGTCAAT,0.0303
7,ATTATCCG,0.0891
8,ATTCCTAC,-0.0909
9,CTGTGAGA,-0.158
10,AAGCGCTC,0.0273
11,GTGTGCCA,-0.0917
12,AAGACCGA,-0.116
13,AGCGCTAT,0.0813
14,CCGGGTTA,-0.16
15,AGAACTCG,0.225
16,CAGGTTTC,-0.014
17,GCAGTTCA,0.014
18,CGTTCTGA,0.0984
19,GGTCGGGA,-0.18
20,CTCATTCC,-0.0576
21,ACATACCA,-0.0707
22,CCGGATCG,-0.245
23,ACGTAACT,0.112
24,AACGTTAT,-0.00236
25,ATTGCGGG,-0.154

row,Sequence,PBM E-score
1,AGAGCAAC,-0.253
2,AGTATTTG,0.0658
3,GATGACGC,0.116
4,CGGCAATC,0.113
5,GAAAGACA,0.0333
6,CGCATGGC,-0.102
7,ATGAAGCA,-0.0574
8,ACTTTGAC,0.186
9,TAGTCCCA,-0.0515
10,ACTAGAAA,-0.0186
11,AACCCAAC,0.176
12,GATTCCTA,-0.0961
13,AGAGATGA,0.0238
14,AGCAGAAA,-0.00835
15,ATGCTCAG,-0.162
16,CATTAGCG,0.0236
17,AGCGCATG,-0.103
18,CTCAATAC,0.13
19,GTTCATGA,0.109
20,AACCAGCG,-0.0976
21,AGGGATAC,-0.0698
22,CATTTTGC,0.154
23,CATCAACC,0.142
24,GGTCAACA,0.0495
25,ACAAACAC,-0.00556

row,Sequence,PBM E-score
1,GTTGCTGA,0.0212
2,CCTTTTCC,-0.118
3,TACGAGCA,0.0778
4,CGCTACCA,-0.0507
5,AAACGAAC,0.191
6,GGAGATGA,0.16
7,GGTGATGA,0.34
8,CAACACCA,0.104
9,CTTCATTA,-0.0209
10,ATATTCTA,0.114
11,CTACTTCC,-0.0498
12,TAGTGATA,0.433
13,CGAGGTAC,0.0949
14,AAATGGGC,-0.177
15,GGACCAAC,-0.232
16,CGACATGA,0.236
17,TAGCTTCA,-0.123
18,AGCTGACG,0.0173
19,CATATGTA,-0.124
20,ATAGAGCA,0.142
21,GTCAGGTA,-0.0617
22,CGTAAACA,0.229
23,GTATGTGA,0.241
24,CTGTCCTC,-0.116
25,GACGTAGC,0.228

row,Sequence,PBM E-score
1,ACGCTACG,0.184
2,AACATCGG,-0.0578
3,AATAAGGG,-0.0888
4,CTATCCAA,-0.0136
5,ACACCCAG,-0.231
6,TCCCTTCA,0.13
7,AAACATTG,-0.251
8,AGTAATTC,0.17
9,AGTCGAGC,-0.144
10,AGAGAATA,0.0964
11,GGCACCTA,-0.0595
12,AGCATCTA,-0.0946
13,CACATCGG,-0.0848
14,GTGCATTA,0.156
15,GCAGCCTA,-0.109
16,TGTATACA,0.132
17,CGAATCCA,0.176
18,ATTTAAGC,0.159
19,ACGCGTCA,0.237
20,GTCTGACA,0.133
21,CCGACCGC,-0.0918
22,TAGGACGA,0.0645
